Experimental data taken from patent US20030162221A1.
Results are given in words; binding and its absence hold for the method and conditions named. In cells and extracts the contact can be indirect. Some binding calls cover weakened binding; strength is not graded here. For some assays here: Tags and fused reporters may be left off the sequences shown.

Sequences of proteins named here, by UniProt entry; tags and fusion partners are left off. Residues count along the entry.
UniProt P00546, residues 2-298: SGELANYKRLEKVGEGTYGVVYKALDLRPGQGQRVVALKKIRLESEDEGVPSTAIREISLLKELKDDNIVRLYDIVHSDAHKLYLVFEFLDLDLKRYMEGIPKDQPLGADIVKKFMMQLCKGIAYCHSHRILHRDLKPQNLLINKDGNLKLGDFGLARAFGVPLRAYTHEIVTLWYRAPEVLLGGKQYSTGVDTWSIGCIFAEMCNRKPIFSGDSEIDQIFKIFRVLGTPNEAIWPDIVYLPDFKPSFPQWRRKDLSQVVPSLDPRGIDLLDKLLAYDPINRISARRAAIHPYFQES

T1: Bcy1 (Saccharomyces cerevisiae) (UniProt P07278)
T1 sequence (looked up): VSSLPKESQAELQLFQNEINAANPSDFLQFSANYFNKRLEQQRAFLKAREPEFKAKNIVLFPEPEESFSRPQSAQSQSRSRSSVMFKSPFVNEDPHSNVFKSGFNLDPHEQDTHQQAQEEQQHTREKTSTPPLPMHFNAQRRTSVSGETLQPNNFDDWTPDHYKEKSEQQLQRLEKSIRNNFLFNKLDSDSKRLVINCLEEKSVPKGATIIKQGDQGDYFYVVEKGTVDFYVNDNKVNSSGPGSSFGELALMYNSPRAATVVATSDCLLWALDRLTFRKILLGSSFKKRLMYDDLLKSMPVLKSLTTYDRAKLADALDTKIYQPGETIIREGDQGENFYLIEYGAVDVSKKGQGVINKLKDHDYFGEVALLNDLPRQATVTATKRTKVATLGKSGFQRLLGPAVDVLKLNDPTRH


What was measured:
[1] = target: T1, Bcy1 (Saccharomyces cerevisiae); assay: anti-FLAG co-IP, LC-MS/MS
[2] = target: Cdc28 (Saccharomyces cerevisiae) (UniProt P00546); assay: anti-FLAG co-IP, LC-MS/MS

binding [1] | binding [2] | Binder
binds |  | Tpk3 (protein, Saccharomyces cerevisiae, UniProt P05986 1-398, looked up) MYVDPMNNNEIRKLSITAKTETTPDNVGQDIPVNAHSVHEECSSNTPVEINGRNSGKLKEEASAGICLVKKPMLQYRDTSGKYSLSDFQILRTLGTGSFGRVHLIRSNHNGRFYALKTLKKHTIVKLKQVEHTNDERRMLSIVSHPFIIRMWGTFQDSQQVFMVMDYIEGGELFSLLRKSQRFPNPVAKFYAAEVCLALEYLHSKDIIYRDLKPENILLDKNGHIKITDFGFAKYVPDVTYTLCGTPDYIAPEVVSTKPYNKSVDWWSFGVLIYEMLAGYTPFYNSNTMKTYENILNAELKFPPFFHPDAQDLLKKLITRDLSERLGNLQNGSEDVKNHPWFNEVIWEKLLARYIETPYEPPIQQGQGDTSQFDRYPEEEFNYGIQGEDPYMDLMKEF
binds |  | Tpk1 (protein, Saccharomyces cerevisiae, UniProt P06244 1-397, looked up) MSTEEQNGGGQKSLDDRQGEESQKGETSERETTATESGNESKSVEKEGGETQEKPKQPHVTYYNEEQYKQFIAQARVTSGKYSLQDFQILRTLGTGSFGRVHLIRSRHNGRYYAMKVLKKEIVVRLKQVEHTNDERLMLSIVTHPFIIRMWGTFQDAQQIFMIMDYIEGGELFSLLRKSQRFPNPVAKFYAAEVCLALEYLHSKDIIYRDLKPENILLDKNGHIKITDFGFAKYVPDVTYTLCGTPDYIAPEVVSTKPYNKSIDWWSFGILIYEMLAGYTPFYDSNTMKTYEKILNAELRFPPFFNEDVKDLLSRLITRDLSQRLGNLQNGTEDVKNHPWFKEVVWEKLLSRNIETPYEPPIQQGQGDTSQFDKYPEEDINYGVQGEDPYADLFRDF
binds |  | Tpk2 (protein, Saccharomyces cerevisiae, UniProt P06245 1-380, looked up) MEFVAERAQPVGQTIQQQNVNTYGQGVLQPHHDLQQRQQQQQQRQHQQLLTSQLPQKSLVSKGKYTLHDFQIMRTLGTGSFGRVHLVRSVHNGRYYAIKVLKKQQVVKMKQVEHTNDERRMLKLVEHPFLIRMWGTFQDARNIFMVMDYIEGGELFSLLRKSQRFPNPVAKFYAAEVILALEYLHAHNIIYRDLKPENILLDRNGHIKITDFGFAKEVQTVTWTLCGTPDYIAPEVITTKPYNKSVDWWSLGVLIYEMLAGYTPFYDTTPMKTYEKILQGKVVYPPYFHPDVVDLLSKLITADLTRRIGNLQSGSRDIKAHPWFSEVVWERLLAKDIETPYEPPITSGIGDTSLFDQYPEEQLDYGIQGDDPYAEYFQDF
 | binds | Clb2 (protein, Saccharomyces cerevisiae, UniProt P24869 1-491, looked up) MSNPIENTENSQNTSSSRFLRNVQRLALNNVTNTTFQKSNANNPALTNFKSTLNSVKKEGSRIPQFTRESVSRSTAAQEEKRTLKENGIQLPKNNLLDDKENQDPSSQQFGALTSIKEGRAELPANISLQESSSAKEIIQHDPLKGVGSSTEVVHNSVENEKLHPARSQLQVRNTESETDSGKKRPISTIVEQELPKKFKVCDENGKEEYEWEDLDAEDVNDPFMVSEYVNDIFEYLHQLEVITLPKKEDLYQHRNIHQNRDILVNWLVKIHNKFGLLPETLYLAINIMDRFLGKELVQLDKLQLVGTSCLFIASKYEEVYSPSIKHFASETDGACTEDEIKEGEKFILKTLKFNLNYPNPMNFLRRISKADDYDIQSRTLAKFLLEISLVDFRFIGILPSLCAAAAMFMSRKMLGKGKWDGNLIHYSGGYTKEELAPVCHMIMDYLVSPIVHDEFHRKYQSRRFMKASIISVQWALKVRKNGYDIMTLHE
 | binds | Cln2 (protein, Saccharomyces cerevisiae, UniProt P20438 1-545, looked up) MASAEPRPRMGLVINAKPDYYPIELSNAELLSHFEMLQEYHQEISTNVIAQSCKFKPNPKLIDQQPEMNPVETRSNIITFLFELSVVTRVTNGIFFHSVRLYDRYCSKRIVLRDQAKLVVATCLWLAAKTWGGCNHIINNVVIPTGGRFYGPNPRARIPRLSELVHYCGDGQVFDESMFLQMERHILDTLNWNIYEPMINDYVLNVDENCLMQYELYENQVTYDKQCSEKRQSQLSQDSDATVDERPYQNEEEEEEDLKLKIKLINLKKFLIDVSAWQYDLLRYELFEVSHGIFSIINQFTNQDHGPFLMTPMTSESKNGEILSTLMNGIVSIPNSLMEVYKTVNGVLPFINQVKEYHLDLQRKLQIASNLNISRKLTISTPSCSFENSNSTSIPSPASSSQSHTPMRNMSSLSDNSVFSRNMEQSSPITPSMYQFGQQQSNSICGSTVSVNSLVNTNNKQRIYEQITGPNSNNATNDYIDLLNLNESNKENQNPATAHYLNGGPPKTSFINHGMFPSPTGTINSGKSSSASSLISFGMGNTQVI
